# Measurements as given in the supplement of paper PMC12067093, “Discovery and optimisation of a covalent ligand for TRIM25 and its application to targeted protein ubiquitination” (Chemical Science, 2025).
# The list shows a part of the results.
# Target: T1, FBXW4_P57775_167_RPLGVFAGHDEDVCHFVLANSHIVSAGGDGK (UniProt P57775)
# T1 sequence (whole entry): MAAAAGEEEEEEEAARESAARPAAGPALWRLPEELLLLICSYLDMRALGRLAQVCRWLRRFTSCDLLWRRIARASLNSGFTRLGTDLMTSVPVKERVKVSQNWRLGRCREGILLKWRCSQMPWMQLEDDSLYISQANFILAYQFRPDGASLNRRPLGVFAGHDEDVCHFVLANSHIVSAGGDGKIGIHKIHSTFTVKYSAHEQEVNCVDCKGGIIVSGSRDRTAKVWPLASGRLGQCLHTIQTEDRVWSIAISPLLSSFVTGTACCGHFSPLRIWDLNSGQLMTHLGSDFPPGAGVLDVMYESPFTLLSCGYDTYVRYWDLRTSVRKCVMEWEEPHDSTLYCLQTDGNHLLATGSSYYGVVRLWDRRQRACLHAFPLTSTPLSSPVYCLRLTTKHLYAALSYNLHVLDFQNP
# Experiment: probe-labelled cysteine peptide fold change vs DMSO (competition) (log2 fold change); higher = less target engagement (more negative = stronger competition)
# Conditions: THP-1, incubation time: 4 h
# 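Note: competitive profiling in live THP-1 cells: cysteine peptides tagged with an iodoacetamide desthiobiotin (IA-DTB) probe, intensity after compound treatment relative to DMSO-treated cells.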
compound,measurement,setting,value
Cc1cc(C(=O)N2CCCN(C(=O)CCl)CC2)ccc1-c1ccccc1 [compound 10],probe-labelled cysteine peptide fold change,10 µM,-0.00195
same,probe-labelled cysteine peptide fold change,50 µM,-0.0411
